How the values were obtained:
HCoV-229E = system: HCoV-229E; parameters: species or system Huh-7; HTS, protection from HCoV-229E induced cell death, luminescent cell viability (CellCounting-Lite 2.0), inhibition rate; settings: 24 h, 10 µM; inhibitor
HCoV-OC43 = system: HCoV-OC43; parameters: species or system RD; HTS, protection from HCoV-OC43 induced cell death, luminescent cell viability (CellCounting-Lite 2.0), inhibition rate; settings: 24 h, 10 µM; inhibitor

## CN[C@H]1CCc2cc(OC)c(OC)c(OC)c2-c2ccc(OC)c(=O)cc21 [Colcemid]
HCoV-229E
  229E Inhibition rate: 26.8
HCoV-OC43
  OC43 Inhibition rate: 1.5

Source: PMC12431657, “Discovery and mechanistic insights of dibenzoylmethane as a broad spectrum inhibitor of coronavirus” (PLOS Pathogens, 2025)
